# Experimental data: article PMC8755542
# Chains of the proteins cited; added tags and fusions are not shown. Lines headed by an entry give the natural chain unless they say otherwise; changes in a name come on top. A line that says so, or that is headed by a name, gives the form on record, which may keep a tag or linker.
# UniProt Q06609, whole entry: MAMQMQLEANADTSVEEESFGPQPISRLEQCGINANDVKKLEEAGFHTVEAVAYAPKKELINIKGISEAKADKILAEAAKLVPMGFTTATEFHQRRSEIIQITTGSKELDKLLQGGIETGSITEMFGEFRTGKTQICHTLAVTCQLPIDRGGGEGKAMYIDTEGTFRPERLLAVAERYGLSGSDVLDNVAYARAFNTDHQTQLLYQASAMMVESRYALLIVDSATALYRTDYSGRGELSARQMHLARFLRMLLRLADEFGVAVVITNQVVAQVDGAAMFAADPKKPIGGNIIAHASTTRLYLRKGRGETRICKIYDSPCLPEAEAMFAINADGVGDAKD
# RPA-mRFP1 (human), one chain, as listed by the source, chain 1 of 3: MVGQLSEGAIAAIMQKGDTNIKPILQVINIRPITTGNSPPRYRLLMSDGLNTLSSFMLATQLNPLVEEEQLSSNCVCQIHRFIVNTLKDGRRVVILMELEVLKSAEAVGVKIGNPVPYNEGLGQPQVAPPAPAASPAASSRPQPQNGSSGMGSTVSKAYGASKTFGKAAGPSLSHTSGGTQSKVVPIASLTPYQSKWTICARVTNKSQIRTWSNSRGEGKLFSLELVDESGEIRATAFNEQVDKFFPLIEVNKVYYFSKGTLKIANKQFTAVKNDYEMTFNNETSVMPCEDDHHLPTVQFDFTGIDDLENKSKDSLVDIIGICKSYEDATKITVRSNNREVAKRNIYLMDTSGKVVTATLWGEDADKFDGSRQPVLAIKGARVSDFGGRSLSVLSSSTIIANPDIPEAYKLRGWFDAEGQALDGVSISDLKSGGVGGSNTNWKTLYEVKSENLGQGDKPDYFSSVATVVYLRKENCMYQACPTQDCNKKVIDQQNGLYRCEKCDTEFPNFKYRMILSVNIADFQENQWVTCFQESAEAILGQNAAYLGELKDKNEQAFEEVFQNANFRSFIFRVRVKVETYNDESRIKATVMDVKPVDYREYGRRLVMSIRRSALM
# RPA-mRFP1 (human), one chain, as listed by the source, chain 3 of 3: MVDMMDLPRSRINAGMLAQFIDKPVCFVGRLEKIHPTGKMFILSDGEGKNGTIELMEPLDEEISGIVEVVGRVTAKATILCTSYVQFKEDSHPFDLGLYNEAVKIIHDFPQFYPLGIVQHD
# RPA-mRFP1 (human), one chain, as listed by the source, chain 2 of 3: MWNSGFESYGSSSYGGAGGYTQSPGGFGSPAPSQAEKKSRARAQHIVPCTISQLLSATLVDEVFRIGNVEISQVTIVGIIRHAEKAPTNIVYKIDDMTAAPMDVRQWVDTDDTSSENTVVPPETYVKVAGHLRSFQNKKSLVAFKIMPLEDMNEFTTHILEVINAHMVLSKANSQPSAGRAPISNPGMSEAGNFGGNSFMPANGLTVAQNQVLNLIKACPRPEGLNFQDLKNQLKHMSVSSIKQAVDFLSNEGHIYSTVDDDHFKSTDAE
# The exact form of at least one protein or probe is not confirmed. For some assays here: Weaker means in comparison with the reference protein, sequence or condition of that experiment. At least one verdict rests on a figure or table, not on a statement of the authors. For some assays here: Protein sequences can lack the tags named with them.
# Tests used:
# RAD51 (human) = RAD51 (human) (UniProt Q06609); assay: EMSA; settings: EMSA: 25 mM Tris-HCl pH 8.0, 2 mM ATP, 2 mM MgCl2, 1 mM DTT, 50 mM NaCl, 0.1 mg/ml BSA, 25 nM DNA, 10 min 37 C (20 min for RAD51 +/- HELQ), recombinant protein
# HELQ (human) = biological target: T1, HELQ (human) (UniProt Q8TDG4); assay: EMSA; settings: 2 mM ATP, 2 mM Mg2+, EMSA: 25 mM Tris-HCl pH 8.0, 2 mM ATP, 2 mM MgCl2, 1 mM DTT, 50 mM NaCl, 0.1 mg/ml BSA, 25 nM DNA, 10 min 37 C (20 min for RAD51 +/- HELQ), recombinant protein, residues 1-1101
# T1 sequence (looked up): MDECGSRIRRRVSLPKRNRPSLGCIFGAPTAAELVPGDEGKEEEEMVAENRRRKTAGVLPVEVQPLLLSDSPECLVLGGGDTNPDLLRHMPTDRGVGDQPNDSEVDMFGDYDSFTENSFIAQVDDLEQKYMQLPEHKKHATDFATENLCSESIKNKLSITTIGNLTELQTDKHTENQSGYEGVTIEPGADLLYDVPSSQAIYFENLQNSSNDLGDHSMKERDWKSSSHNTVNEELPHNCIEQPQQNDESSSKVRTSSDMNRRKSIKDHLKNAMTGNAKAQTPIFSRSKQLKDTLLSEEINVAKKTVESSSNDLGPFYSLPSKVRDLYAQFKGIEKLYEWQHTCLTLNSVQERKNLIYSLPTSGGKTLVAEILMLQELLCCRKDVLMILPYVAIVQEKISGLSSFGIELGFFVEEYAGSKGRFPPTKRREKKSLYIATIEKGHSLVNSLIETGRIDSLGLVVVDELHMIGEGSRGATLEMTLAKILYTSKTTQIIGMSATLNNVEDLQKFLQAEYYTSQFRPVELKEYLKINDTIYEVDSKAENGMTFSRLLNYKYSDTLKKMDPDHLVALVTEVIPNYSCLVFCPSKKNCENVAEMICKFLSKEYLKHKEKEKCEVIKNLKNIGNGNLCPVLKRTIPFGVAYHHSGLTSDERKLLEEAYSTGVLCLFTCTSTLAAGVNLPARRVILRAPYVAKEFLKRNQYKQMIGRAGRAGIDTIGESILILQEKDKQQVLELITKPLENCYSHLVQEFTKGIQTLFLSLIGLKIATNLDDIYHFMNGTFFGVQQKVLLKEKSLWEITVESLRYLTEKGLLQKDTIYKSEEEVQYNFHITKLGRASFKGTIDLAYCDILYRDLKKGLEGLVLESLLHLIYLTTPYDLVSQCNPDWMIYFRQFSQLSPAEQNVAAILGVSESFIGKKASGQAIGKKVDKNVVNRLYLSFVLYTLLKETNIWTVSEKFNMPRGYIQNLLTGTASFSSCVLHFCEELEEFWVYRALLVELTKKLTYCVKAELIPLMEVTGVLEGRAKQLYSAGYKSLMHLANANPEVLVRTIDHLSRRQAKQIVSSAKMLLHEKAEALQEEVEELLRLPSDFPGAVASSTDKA
# RPA-mRFP1 (human) = assay: EMSA (RPA stripping gel); settings: stripped by HELQ during annealing to oligo 2, RPA fusion presumed mRFP1; EMSA: 25 mM Tris-HCl pH 8.0, 2 mM ATP, 2 mM MgCl2, 1 mM DTT, 50 mM NaCl, 0.1 mg/ml BSA, 25 nM DNA, 10 min 37 C (20 min for RAD51 +/- HELQ); recombinant protein; protein details: mRFP1; label: 5' FITC; single-stranded DNA
# HELQ(K365M) + RPA-mRFP1 = assay: pull-down; settings: bait oligo bridging to Cy3-dT79, RPA fusion not stated; recombinant protein; label: 3' biotin; single-stranded DNA
# HELQ + RPA-mRFP1 = assay: pull-down; settings: bait oligo bridging to Cy3-dT79, 82 nM RPA, fusion not stated; recombinant protein; label: 3' biotin; single-stranded DNA
# [1] = 2 mM ATP, 2 mM Mg2+, no BRC4, label: 5' FITC on strand 1
# [2] = with GST-BRC4 (P7), which prevents RAD51 DNA binding, label: 5' FITC on strand 1
sequence,measurement,setting,value
AGCTACCATGCCTGCACGAATTAAGCAATTCGTAATCATGGTCATAGCT (double strand) [dsDNA (oligo 1 + oligo 2)],binding result,"RAD51 (human); not removed by added HELQ, label: 5' FITC on strand 1",binds
same,binding result,HELQ (human); label: 5' FITC on strand 1,binds
AGCTACCATGCCTGCACGAATTAAGCAATTCGTAATCATGGTCATAGCT / AATTCGTGCAGGCATGGTAGCT [3' overhang (oligo 1 + oligo 4)],binding result,RAD51 (human); [1],binds
same,binding result,RAD51 (human); [2],binds more weakly
AGCTACCATGCCTGCACGAATTAAGCAATTCGTAATCATGGTCATAGCT / AGCTATGACCATGATTACGAATTGCTTGGAATCCTGACGAACTGTAG [Y structure (oligo 1 + oligo 6)],binding result,RAD51 (human); [1],binds
same,binding result,RAD51 (human); [2],binds more weakly
AGCTACCATGCCTGCACGAATTAAGCAATTCGTAATCATGGTCATAGCT [ssDNA (oligo 1)],binding result,"RAD51 (human); not removed by added HELQ, label: 5' FITC, single-stranded DNA",binds
same,binding result,"HELQ (human); label: 5' FITC, single-stranded DNA",binds
same,binding result,RPA-mRFP1 (human),binds
TTTTTTTTTTTTTTTTTTTTTTTTTTTTTTTTTTTTTTTTTTT [B-dT43],binding result,HELQ(K365M) + RPA-mRFP1,binds
same,binding result,HELQ + RPA-mRFP1,binds
